Laboratory results published in PMC6138711.
These are yes or no findings as the source states them, for the method shown. Binding seen in cells or lysates may run through a third protein. Some binding calls cover weakened binding; strength is not graded here.

By UniProt entry, the sequences of proteins in these tests, tags left out.
UniProt Q69YN4: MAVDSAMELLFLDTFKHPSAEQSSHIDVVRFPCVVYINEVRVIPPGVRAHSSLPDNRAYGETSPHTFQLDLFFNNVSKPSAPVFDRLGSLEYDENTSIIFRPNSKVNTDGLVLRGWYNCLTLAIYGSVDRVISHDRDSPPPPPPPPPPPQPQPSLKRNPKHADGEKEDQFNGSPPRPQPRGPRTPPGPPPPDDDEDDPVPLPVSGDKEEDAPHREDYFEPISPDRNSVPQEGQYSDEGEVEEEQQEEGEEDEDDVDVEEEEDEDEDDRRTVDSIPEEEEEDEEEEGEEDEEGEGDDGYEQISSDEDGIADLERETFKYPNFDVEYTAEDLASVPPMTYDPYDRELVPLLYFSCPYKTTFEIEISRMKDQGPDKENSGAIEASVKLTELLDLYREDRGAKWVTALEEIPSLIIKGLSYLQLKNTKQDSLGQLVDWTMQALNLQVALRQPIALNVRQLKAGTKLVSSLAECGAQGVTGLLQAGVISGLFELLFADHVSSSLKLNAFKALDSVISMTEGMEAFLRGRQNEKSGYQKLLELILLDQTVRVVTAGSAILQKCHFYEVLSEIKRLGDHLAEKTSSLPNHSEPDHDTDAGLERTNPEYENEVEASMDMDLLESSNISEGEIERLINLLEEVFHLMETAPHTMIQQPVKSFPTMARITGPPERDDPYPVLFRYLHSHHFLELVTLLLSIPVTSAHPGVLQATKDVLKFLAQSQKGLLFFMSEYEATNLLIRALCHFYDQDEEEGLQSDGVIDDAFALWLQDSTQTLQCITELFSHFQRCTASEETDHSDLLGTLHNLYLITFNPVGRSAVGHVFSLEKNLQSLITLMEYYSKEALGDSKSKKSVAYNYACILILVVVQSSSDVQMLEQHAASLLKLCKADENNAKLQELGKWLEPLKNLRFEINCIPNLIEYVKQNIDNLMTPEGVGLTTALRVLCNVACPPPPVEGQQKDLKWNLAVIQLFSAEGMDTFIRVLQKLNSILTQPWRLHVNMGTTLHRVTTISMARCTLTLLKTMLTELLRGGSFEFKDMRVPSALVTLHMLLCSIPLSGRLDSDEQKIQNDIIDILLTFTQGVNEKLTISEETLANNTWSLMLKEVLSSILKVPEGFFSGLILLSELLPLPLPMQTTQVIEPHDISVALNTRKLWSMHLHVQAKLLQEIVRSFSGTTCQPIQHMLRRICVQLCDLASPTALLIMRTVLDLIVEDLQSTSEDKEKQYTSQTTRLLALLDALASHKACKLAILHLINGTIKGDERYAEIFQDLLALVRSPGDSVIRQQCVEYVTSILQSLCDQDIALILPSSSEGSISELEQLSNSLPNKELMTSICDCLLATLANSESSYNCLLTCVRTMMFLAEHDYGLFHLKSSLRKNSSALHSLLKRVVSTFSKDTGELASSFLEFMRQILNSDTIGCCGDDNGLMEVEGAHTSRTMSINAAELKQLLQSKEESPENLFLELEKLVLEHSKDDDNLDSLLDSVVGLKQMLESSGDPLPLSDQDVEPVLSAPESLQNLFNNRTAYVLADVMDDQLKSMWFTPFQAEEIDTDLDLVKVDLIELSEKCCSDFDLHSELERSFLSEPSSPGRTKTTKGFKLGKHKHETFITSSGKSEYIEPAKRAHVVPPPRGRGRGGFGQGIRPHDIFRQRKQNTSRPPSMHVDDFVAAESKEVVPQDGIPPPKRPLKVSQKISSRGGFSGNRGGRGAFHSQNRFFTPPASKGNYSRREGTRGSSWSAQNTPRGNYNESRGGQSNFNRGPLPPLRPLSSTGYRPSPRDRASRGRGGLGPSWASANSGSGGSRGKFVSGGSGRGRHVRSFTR
UniProt Q86U44: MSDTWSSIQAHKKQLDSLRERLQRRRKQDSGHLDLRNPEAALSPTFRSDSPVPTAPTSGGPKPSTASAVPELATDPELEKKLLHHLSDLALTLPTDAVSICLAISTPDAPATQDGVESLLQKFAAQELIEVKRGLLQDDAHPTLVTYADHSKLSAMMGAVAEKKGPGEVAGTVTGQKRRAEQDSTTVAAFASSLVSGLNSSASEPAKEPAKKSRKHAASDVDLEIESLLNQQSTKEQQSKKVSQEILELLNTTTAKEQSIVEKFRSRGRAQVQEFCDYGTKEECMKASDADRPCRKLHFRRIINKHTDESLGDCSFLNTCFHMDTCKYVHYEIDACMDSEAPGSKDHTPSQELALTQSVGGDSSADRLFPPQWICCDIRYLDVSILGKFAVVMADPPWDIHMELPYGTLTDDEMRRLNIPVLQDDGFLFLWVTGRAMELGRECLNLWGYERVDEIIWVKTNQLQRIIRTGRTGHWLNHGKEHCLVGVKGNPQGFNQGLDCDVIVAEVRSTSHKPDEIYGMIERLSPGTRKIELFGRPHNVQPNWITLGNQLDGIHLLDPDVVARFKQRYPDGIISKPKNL
UniProt Q13838: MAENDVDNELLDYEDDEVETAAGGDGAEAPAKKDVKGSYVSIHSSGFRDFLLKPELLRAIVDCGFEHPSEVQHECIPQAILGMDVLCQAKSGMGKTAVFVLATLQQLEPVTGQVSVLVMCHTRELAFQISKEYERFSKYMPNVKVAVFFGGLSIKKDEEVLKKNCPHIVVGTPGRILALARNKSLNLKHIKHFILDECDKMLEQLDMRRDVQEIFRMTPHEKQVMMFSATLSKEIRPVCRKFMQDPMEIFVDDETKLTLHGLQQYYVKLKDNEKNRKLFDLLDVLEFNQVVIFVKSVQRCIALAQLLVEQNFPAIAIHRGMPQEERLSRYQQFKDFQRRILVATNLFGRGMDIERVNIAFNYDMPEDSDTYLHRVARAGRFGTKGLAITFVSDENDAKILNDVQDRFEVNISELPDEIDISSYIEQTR

Experiments:
Experiment in all cases: co-IP; antibody to the endogenous bait on Protein-G Dynabeads, cell extract in IP lysis buffer (50 mM HEPES-NaOH pH 7.5, 100 mM NaCl, 1 mM EDTA, 0.1% Triton X-100, 10% glycerol, 1 mM DTT) with RNase A and DNase 1, 2 h at 4 °C, Western blot; control IP with anti-FLAG; some panels after RNAi of KIAA1429, WTAP, METTL3 or ALYREF/CHTOP
[1] = target: KIAA1429 (human (endogenous in 293T)) (UniProt Q69YN4)
[2] = target: T1, METTL14 (human (endogenous in 293T)) (UniProt Q9HCE5)
T1 sequence: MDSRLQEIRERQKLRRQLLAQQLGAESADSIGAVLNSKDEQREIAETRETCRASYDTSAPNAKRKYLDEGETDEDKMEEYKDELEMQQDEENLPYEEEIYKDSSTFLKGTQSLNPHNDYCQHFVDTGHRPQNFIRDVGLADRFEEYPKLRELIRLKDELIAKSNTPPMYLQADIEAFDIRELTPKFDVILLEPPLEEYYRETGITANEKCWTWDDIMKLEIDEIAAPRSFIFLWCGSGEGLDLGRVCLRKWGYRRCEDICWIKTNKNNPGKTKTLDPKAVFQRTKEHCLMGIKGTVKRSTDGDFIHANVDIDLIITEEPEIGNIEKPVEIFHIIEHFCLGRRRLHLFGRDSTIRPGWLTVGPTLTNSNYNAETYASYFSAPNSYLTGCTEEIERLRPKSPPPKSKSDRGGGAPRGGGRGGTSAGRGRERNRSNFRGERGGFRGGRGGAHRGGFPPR

[3] = target: METTL3 (human (endogenous in 293T)) (UniProt Q86U44)
[4] = target: T2, WTAP (human (endogenous in 293T)) (UniProt Q15007)
T2 sequence: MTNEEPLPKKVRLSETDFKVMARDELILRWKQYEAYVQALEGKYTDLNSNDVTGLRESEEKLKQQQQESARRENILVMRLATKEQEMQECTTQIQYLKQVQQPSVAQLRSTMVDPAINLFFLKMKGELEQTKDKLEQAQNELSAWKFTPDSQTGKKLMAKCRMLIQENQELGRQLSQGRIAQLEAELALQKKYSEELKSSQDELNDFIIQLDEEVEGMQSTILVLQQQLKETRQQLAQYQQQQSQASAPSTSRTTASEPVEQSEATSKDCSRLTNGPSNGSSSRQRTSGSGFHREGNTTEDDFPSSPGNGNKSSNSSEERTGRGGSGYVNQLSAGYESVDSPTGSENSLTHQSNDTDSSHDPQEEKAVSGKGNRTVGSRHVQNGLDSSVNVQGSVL

Measured: binding

UAP56 (from UniProt Q13838 1-428)
binds: all assays above

B1: THOC5 (protein, UniProt Q13769 1-683)
chain: MSSESSKKRKPKVIRSDGAPAEGKRNRSDTEQEGKYYSEEAEVDLRDPGRDYELYKYTCQELQRLMAEIQDLKSRGGKDVAIEIEERRIQSCVHFMTLKKLNRLAHIRLKKGRDQTHEAKQKVDAYHLQLQNLLYEVMHLQKEITKCLEFKSKHEEIDLVSLEEFYKEAPPDISKAEVTMGDPHQQTLARLDWELEQRKRLAEKYRECLSNKEKILKEIEVKKEYLSSLQPRLNSIMQASLPVQEYLFMPFDQAHKQYETARHLPPPLYVLFVQATAYGQACDKTLSVAIEGSVDEAKALFKPPEDSQDDESDSDAEEEQTTKRRRPTLGVQLDDKRKEMLKRHPLSVMLDLKCKDDSVLHLTFYYLMNLNIMTVKAKVTTAMELITPISAGDLLSPDSVLSCLYPGDHGKKTPNPANQYQFDKVGILTLSDYVLELGHPYLWVQKLGGLHFPKEQPQQTVIADHSLSASHMETTMKLLKTRVQSRLALHKQFASLEHGIVPVTSDCQYLFPAKVVSRLVKWVTVAHEDYMELHFTKDIVDAGLAGDTNLYYMALIERGTAKLQAAVVLNPGYSSIPPVFQLCLNWKGEKTNSNDDNIRAMEGEVNVCYKELCGPWPSHQLLTNQLQRLCVLLDVYLETESHDDSVEGPKEFPQEKMCLRLFRGPSRMKPFKYNHPQGFFSHR
binds: all assays above
